Some entries share one result that the patent states for a list of compounds.
How the values were obtained:
[1] = system: PTX22 (β364) paclitaxel-selected β-tubulin mutant clone of 1A9; assay: 72 h growth inhibition assay (SRB), paclitaxel-selected clone PTX22; type: cell-based, human; conditions: IC50 of PTX22 divided by IC50 of parental 1A9
Method: The biological activities of the synthesized epothilones were evaluated through cytotoxicity and tubulin polymerization assays. Cytotoxicity was first evaluated in a set of ovarian carcinoma cell lines, including a parental cell line (IA9) and three drug-resistant cell lines, namely the paclitaxel-resistant cell lines (Giannakakou, P.; et al. J. Biol. Chem. 1997, 272, 17118-17125) IA9/PTX10 and IA9/PTX22 and the epothilone-resistant cell line (Giannakakou, P.; et al. Proc. Natl. Acad. Sci. USA 2000, 97, 2904-2909) 1A9/A8. These resistant cell lines harbor distinct acquired P-tubulin mutations which affect drug-tubulin interaction and result in impaired taxane and epothilone-driven tubulin polymerization. Further cytotoxicity studies were undertaken using a set of human epidermoid cancer cell lines, including a parent cell line (KB-31), and a paclitaxel-resistant (due to P-gp overexpression) cell line (KB-8511).
IC50 values for each compound are given in nM and represent the mean of 3-5 independent experiments±standard error of the mean. Relative resistance (RR) is calculated as an IC50 value for each resistant subline divided by that for the parental cell line (1A9).^b Data from reference 3. CP=cyclopropyl, CB=cyclobutyl, na=not applicable, nd=not determined, py=5-methylpyridine side chain.

[2] = system: purified rat brain tubulin; assay: Tubulin polymerization kinetics, absorbance at 350 nm; type: biochemical
Method: The cytotoxicity analysis was supplemented with data from two independent in vitro tubulin polymerization assays. In one assay, the fraction of tubulin polymerized into microtubules upon exposure to a given concentration of the respective compound was determined (see Table 2). In the other assay, tubulin polymerization kinetics upon exposure to the respective compounds was determined using purified rat brain tubulin through measurement of the absorbance at 350 nm (see FIG. 3). For this analysis, paclitaxel, epothilone A (1) and epothilone B (2) were used as controls while compounds 9, 11 and 12 were selected for in vitro analysis.

C/C(=C\c1ccc(C)cn1)[C@@H]1C[C@@H]2C[C@@H]2CCC[C@H](C)[C@H](O)[C@@H](C)C(=O)C(C)(C)[C@@H](O)CC(=O)O1 [Compound 9]
relative resistance (RR) [1]: < 1 | time to A350=0.25 [2]: < 1 min

C/C(=C\c1ccc(C)cn1)[C@@H]1C[C@@H]2C[C@H]2CCC[C@H](C)[C@H](O)[C@@H](C)C(=O)C(C)(C)[C@@H](O)CC(=O)O1 [Compound 11, (12R, 13S, 15S)-cyclopropyl 5-methylpyridine epothilone A]
relative resistance (RR) [1]: < 1 | time to A350=0.25 [2]: < 1 min

From patent US7358266B2, “Cyclopropyl and cyclobutyl epothilone analogs” (The Scripps Research Institute, priority 2001, dated 2008)
